## Primary screen of a compound library

Amino acid sequences for entries named in this document (tags omitted). Residues count along the entry.
UniProt Q4DA54, 1-478: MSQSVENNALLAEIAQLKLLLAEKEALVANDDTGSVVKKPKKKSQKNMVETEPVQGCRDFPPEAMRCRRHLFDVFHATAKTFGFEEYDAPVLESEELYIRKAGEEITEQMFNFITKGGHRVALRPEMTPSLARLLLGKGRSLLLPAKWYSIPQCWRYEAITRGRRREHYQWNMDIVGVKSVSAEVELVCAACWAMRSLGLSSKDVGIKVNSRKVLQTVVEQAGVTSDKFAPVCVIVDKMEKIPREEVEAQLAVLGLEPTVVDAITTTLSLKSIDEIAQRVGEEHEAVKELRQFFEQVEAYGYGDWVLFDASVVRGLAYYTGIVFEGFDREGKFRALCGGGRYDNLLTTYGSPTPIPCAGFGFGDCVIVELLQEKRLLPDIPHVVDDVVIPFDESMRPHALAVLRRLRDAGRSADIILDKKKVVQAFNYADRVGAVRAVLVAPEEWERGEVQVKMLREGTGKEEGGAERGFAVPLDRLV
UniProt P9WNZ1, whole entry: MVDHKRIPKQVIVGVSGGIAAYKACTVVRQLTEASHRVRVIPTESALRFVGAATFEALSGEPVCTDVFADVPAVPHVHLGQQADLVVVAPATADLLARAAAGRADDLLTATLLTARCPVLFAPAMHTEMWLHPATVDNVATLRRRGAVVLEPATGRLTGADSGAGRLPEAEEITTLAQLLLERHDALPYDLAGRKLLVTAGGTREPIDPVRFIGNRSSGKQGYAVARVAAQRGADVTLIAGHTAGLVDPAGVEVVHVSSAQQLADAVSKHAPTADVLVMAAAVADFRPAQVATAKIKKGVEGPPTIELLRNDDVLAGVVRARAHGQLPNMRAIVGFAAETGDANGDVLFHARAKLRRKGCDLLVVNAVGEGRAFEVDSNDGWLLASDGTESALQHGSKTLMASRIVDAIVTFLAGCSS
UniProt P9WPC5, whole entry: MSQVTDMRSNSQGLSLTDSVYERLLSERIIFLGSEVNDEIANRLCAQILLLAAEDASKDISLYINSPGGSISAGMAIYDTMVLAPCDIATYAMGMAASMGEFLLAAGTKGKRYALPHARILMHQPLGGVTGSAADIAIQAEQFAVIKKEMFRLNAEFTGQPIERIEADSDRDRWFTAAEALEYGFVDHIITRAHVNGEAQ
UniProt P9WPC3, whole entry partner: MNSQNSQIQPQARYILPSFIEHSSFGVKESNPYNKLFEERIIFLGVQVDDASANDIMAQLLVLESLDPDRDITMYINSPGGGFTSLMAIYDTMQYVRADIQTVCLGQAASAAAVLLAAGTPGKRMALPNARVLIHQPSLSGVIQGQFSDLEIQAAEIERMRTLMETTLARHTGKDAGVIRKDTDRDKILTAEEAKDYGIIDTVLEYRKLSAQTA
UniProt Q8IDJ8, 1-583: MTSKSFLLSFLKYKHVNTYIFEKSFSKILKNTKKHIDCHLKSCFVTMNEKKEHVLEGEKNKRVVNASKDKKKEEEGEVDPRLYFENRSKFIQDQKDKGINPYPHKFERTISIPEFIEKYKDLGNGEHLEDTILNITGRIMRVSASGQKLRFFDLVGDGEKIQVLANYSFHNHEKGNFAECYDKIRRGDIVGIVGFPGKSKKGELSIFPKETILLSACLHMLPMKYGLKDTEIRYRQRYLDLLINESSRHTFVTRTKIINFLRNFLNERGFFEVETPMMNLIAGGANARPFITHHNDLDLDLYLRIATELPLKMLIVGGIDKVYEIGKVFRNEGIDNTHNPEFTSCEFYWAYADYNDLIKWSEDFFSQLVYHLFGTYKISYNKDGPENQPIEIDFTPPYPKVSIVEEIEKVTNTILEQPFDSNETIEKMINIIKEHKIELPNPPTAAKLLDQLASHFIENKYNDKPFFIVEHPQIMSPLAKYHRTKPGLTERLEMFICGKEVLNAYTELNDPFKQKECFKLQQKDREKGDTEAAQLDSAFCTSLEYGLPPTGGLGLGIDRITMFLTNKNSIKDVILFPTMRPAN

Measurements from “University of Dundee, Small-Polar-MMV Screening Library” (2021), ChEMBL document CHEMBL3988442.

Leishmania in macrophages: 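Cell assay of Leishmania donovani living inside macrophages; the read-out is not stated. Compounds at 30 µM. Direction is inferred from retests: higher values go with stronger inhibition. About 69,000 compounds were tested under these conditions; 1.5% (about 1,000) showed 50% or more at least once.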
TcHisRS: 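Enzyme assay of histidyl-tRNA synthetase; the read-out is not stated. Target: Histidine-tRNA ligase, Trypanosoma cruzi CL Brener (UniProt Q4DA54). Compounds at 30 µM. Direction is inferred from retests: higher values go with stronger inhibition. About 69,000 compounds were tested under these conditions; 0.045% (about 31) showed 50% or more at least once.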
CoaBC: 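Coenzyme A biosynthesis protein CoaBC, Mycobacterium tuberculosis (UniProt P9WNZ1). Enzyme assay of CoaBC with a phosphate dye (Biomol Green) read at 650 nm. Compounds at 30 µM. Direction is inferred from only a few compounds that gave an IC50; most scored high, so higher reads as stronger inhibition. Most strong results did not repeat in a second test. Size under these conditions: about 67,000 compounds, about 40 of them at 50% or above in at least one test.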
ClpP1P2: 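ClpP1P2, Mycobacterium tuberculosis (UniProt P9WPC5 and UniProt P9WPC3). Protease assay of ClpP1P2, read by the AMC dye that it sets free. Compounds at 50 µM. Direction is inferred from only a few compounds that gave an IC50; most scored high, so higher reads as stronger inhibition. Most other retested compounds had strongly negative values. About 69,000 compounds were tested under these conditions; 0.015% (about 10) showed 50% or more at least once.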
PfKRS1: 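Lysine-tRNA ligase, Plasmodium falciparum 3D7 (UniProt Q8IDJ8). Enzyme assay of the cytosolic lysyl-tRNA synthetase in 384-well plates, read by luminescence. Concentration: 30 µM. Direction is inferred from only a few compounds that gave an IC50; most scored high, so higher reads as stronger inhibition. Size under these conditions: about 69,000 compounds, about 49 of them at 50% or above in at least one test.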

Each number is a percent effect as filed.
The controls that fix the scale are not given in the record; negative values are as filed.
This is an unselected part of the compounds tested.
Two or more numbers in one place are separate tests of the same structure; such repeats can differ widely.

{"compound": "CCN1CC2(CC1=O)CN(C(=O)N(C)C)CCN(S(C)(=O)=O)C2", "stereo": "centres undefined", "Leishmania in macrophages": 17.83, "TcHisRS": 3.681, "ClpP1P2": -5.646, "PfKRS1": 1.999}
{"compound": "CNc1nc2c(s1)C(c1ccccc1Cl)CC(=O)N2", "stereo": "centres undefined", "Leishmania in macrophages": -24.58, "TcHisRS": 17.39, "CoaBC": 1.139, "ClpP1P2": -49.5, "PfKRS1": 84.53}
{"compound": "O=C(N1CCOCC1)N1CC[C@H]2[C@@H]1CCC(=O)N2c1ccccc1", "TcHisRS": 5.747, "CoaBC": 3.87, "ClpP1P2": -2.294, "PfKRS1": 0.7757}
{"compound": "[H][C@]12CC[C@]([H])(CN(C(=O)c3cccnc3)C1)N(C(=O)CN1CCOC1=O)C2", "Leishmania in macrophages": 12.17}
{"compound": "CC(NC(=O)NCCCc1n[nH]c(N)c1C#N)c1cccc(Cl)c1", "stereo": "centres undefined", "Leishmania in macrophages": 19.1, "TcHisRS": 7.429, "CoaBC": 3.675, "ClpP1P2": -12.49, "PfKRS1": 2.657}
{"compound": "CCOc1cc(C)nc(N2CCN(Cc3nccn3CC)CC2)n1", "Leishmania in macrophages": 1.843, "TcHisRS": 3.175, "CoaBC": 4.142, "ClpP1P2": -8.103, "PfKRS1": -4.329}
{"compound": "CC(C)c1ccc(NC(=O)c2ncc(C(N)=O)cc2Cl)cc1", "Leishmania in macrophages": 10.21, "TcHisRS": 1.84, "CoaBC": -2.177, "ClpP1P2": -3.736, "PfKRS1": -3.992}
{"compound": "CC(Cn1cccn1)NC(=O)Nc1ccc(N2CCCC2)nc1", "stereo": "centres undefined", "Leishmania in macrophages": -10.73, "TcHisRS": 0, "CoaBC": 6.903, "ClpP1P2": -4.319, "PfKRS1": -0.5141}
{"compound": "O=C(CSCc1ccccn1)NCC1CC1", "Leishmania in macrophages": 10.57, "TcHisRS": 5.155, "CoaBC": -6.374, "ClpP1P2": 10.94, "PfKRS1": 7.047}
{"compound": "CCCc1noc(CN2CCN(CCO)CC2)n1", "Leishmania in macrophages": 11.2, "TcHisRS": 4.706, "CoaBC": 5.627, "ClpP1P2": -22.29, "PfKRS1": 0.8939}
{"compound": "Cc1cccc(CN2CCC3(CCCN(C(=O)N(C)C)C3)C2=O)n1.O=C(O)C(F)(F)F", "stereo": "centres undefined", "Leishmania in macrophages": "11.25 and 27.17"}
{"compound": "CC(C)c1nnc2n1CCN(Cc1cc(Cl)c3c(c1)OCCO3)C2", "Leishmania in macrophages": 15.29, "TcHisRS": 5.217, "CoaBC": 11.79, "ClpP1P2": -3.032, "PfKRS1": 8.421}
{"compound": "CN(C)[C@@H]1CO[C@H](CNC(=O)c2cccs2)[C@H]1O", "Leishmania in macrophages": 17.45, "TcHisRS": 10.89, "CoaBC": 2.483, "ClpP1P2": -4.258, "PfKRS1": 3.412}
{"compound": "Cc1cccc(CN2CCCC2c2cccc(Nc3nccs3)n2)c1", "stereo": "centres undefined", "Leishmania in macrophages": 29.01, "TcHisRS": 9.04, "CoaBC": -24.7, "ClpP1P2": -13.82, "PfKRS1": -0.1467}
{"compound": "COc1cccc(CNc2cnn(C)c(=O)c2Cl)c1", "Leishmania in macrophages": 34.79, "TcHisRS": -2.642, "CoaBC": 0.1304, "ClpP1P2": -4.052, "PfKRS1": 0.1077}
{"compound": "Cc1ccc(=O)n(CC2(O)CCN(Cc3cnc(N(C)C)nc3)CC2)n1", "Leishmania in macrophages": 14.66, "TcHisRS": -2.128, "CoaBC": -4.902, "ClpP1P2": 0.9514, "PfKRS1": -3.227}
{"compound": "CN1CCN(Cc2c(-c3ccco3)[nH]c3ncccc23)CC1", "Leishmania in macrophages": "20.62 and 15.46", "TcHisRS": 9.89, "CoaBC": 2.67, "ClpP1P2": -5.147, "PfKRS1": 3.746}
{"compound": "COCC(=O)N1Cc2cnc(Cc3ccc(OC)cc3)nc2C1", "Leishmania in macrophages": 16.86, "TcHisRS": 0.8264, "CoaBC": 0.2132, "ClpP1P2": -3.203, "PfKRS1": -0.5448}
{"compound": "O=C(CCn1cccn1)NCC(c1cccs1)N1CCOCC1", "stereo": "centres undefined", "Leishmania in macrophages": -31.64, "TcHisRS": 13.79, "CoaBC": 9.471, "ClpP1P2": 0.8749, "PfKRS1": -2.842}
{"compound": "COc1ccccc1C1CC(=O)Nc2nc(N3CCCCC3)sc21", "stereo": "centres undefined", "Leishmania in macrophages": 37.07, "TcHisRS": 74.53, "CoaBC": 3.165, "ClpP1P2": -812.7, "PfKRS1": 84.31}
{"compound": "Cc1nn(C)c(N2CCOCC2)c1CNC1CCN(C2CC2)CC1", "Leishmania in macrophages": 28.85, "TcHisRS": 7.429, "CoaBC": 1.575, "ClpP1P2": -6.943, "PfKRS1": 0.9077}
{"compound": "CNC(=O)NCC(CO)Cc1ccccc1OC(F)(F)F", "stereo": "centres undefined", "Leishmania in macrophages": 7.334, "TcHisRS": -1.98, "CoaBC": -4.096, "ClpP1P2": -11.12, "PfKRS1": -5.629}
{"compound": "O=C(CSC1CCc2ccccc2NC1=O)NCc1cccs1", "stereo": "centres undefined", "Leishmania in macrophages": 1.435, "TcHisRS": 2.424, "CoaBC": 2.043, "ClpP1P2": -13.35, "PfKRS1": 3.456}
{"compound": "COc1ccccc1CNC(=O)CNc1ccccc1C(C)=O", "Leishmania in macrophages": 16.84, "TcHisRS": 1.327, "CoaBC": -11.45, "ClpP1P2": -48.05, "PfKRS1": 3.248}
{"compound": "COCC(=O)NC1CC2(CCN(CCO)CC2)c2ccccc21", "stereo": "centres undefined", "TcHisRS": 9.524, "CoaBC": 4.444, "ClpP1P2": 8.782, "PfKRS1": -0.2731}
{"compound": "COCCC(=O)N1CCC2(CC1)CC(c1ccccc1)CN(C)C2", "stereo": "centres undefined", "Leishmania in macrophages": 4.993, "TcHisRS": 1.653, "CoaBC": -7.018, "ClpP1P2": 3.568, "PfKRS1": 5.558}
{"compound": "O=C(O)c1ccnc(-c2ccnc(COc3ccc(Cl)cc3)n2)c1", "Leishmania in macrophages": 19.62, "TcHisRS": 0, "CoaBC": 4.39, "ClpP1P2": -5.616, "PfKRS1": 3.206}
{"compound": "Cc1cccc(N2CCC3(CCCN3Cc3cn(C)nc3C)CC2)n1", "Leishmania in macrophages": 17.07, "TcHisRS": 4.865, "CoaBC": 17.73, "ClpP1P2": -0.736, "PfKRS1": -0.4912}
{"compound": "[H][C@@]12CCN(CC3CCC3)C[C@]1(C(=O)N1CCOCC1)CCO2", "Leishmania in macrophages": 3.644}

3 of the entries, repeated:

For CCOc1cc(C)nc(N2CCN(Cc3nccn3CC)CC2)n1 the result was Leishmania in macrophages: 1.843%; TcHisRS: 3.175%; CoaBC: 4.142%; ClpP1P2: -8.103%; PfKRS1: -4.329%.
For CC(C)c1nnc2n1CCN(Cc1cc(Cl)c3c(c1)OCCO3)C2 the result was Leishmania in macrophages: 15.29%; TcHisRS: 5.217%; CoaBC: 11.79%; ClpP1P2: -3.032%; PfKRS1: 8.421%.
For Cc1ccc(=O)n(CC2(O)CCN(Cc3cnc(N(C)C)nc3)CC2)n1 the result was Leishmania in macrophages: 14.66%; TcHisRS: -2.128%; CoaBC: -4.902%; ClpP1P2: 0.9514%; PfKRS1: -3.227%.